Data on 21 compounds can be found in PMC12027149 (International Journal of Molecular Sciences, 2025).

The data set concerns differentiated SH-SY5Y cells. In words: MTT cytotoxicity assay on differentiated SH-SY5Y cells. Format: cell-based, human. Particulars: cytotoxicity dose–response curve, 24 h. Here is the method:
The SH–SY5Y cell line (DSMZ code: ACC 209) was supplied by the German Collection of Microorganisms and the Cell Culture GmbH (DSMZ) biobank and was cultured according to the supplier’s information. Cells were grown in DMEM:F12 (Dulbecco’s Modified Eagle’s Medium/F12), supplemented with 10% fetal bovine serum (FBS) and 1% antibiotic–antimycotic in a humidified atmosphere with 5% CO2 at 37 °C. Subculture was performed according to biobank instructions when the cultures reached 80–85% of confluence.
SH-SY5Y cells were trypsinized (trypsin/EDTA; 0.25%) and the cell suspension was seeded in 96-well plates at a density of 2 × 10^4 cells/well and incubated until reaching 80-85% confluence. Cells were differentiated to obtain a dopaminergic neuronal phenotype according to Ferreira et al. with slight modifications (Figure 10). To ensure reproducibility and optimal neuronal differentiation, cells were used between passages (15–25). Briefly, cells were seeded in complete DMEM:F12 medium containing 10 µM retinoic acid (RA) and 2.5% fetal bovine serum (FBS) and maintained for 4 days, with the medium changed on day 2. After this time, the medium was replaced by DMEM:F12 supplemented with 10 µM RA, 80 nM 12-O-tetradecanoylphorbol-13-acetate (TPA), and 2.5% FBS, and the cells were maintained for an additional 4 days (with the medium changed at day 6). The cytotoxicity assay was performed on day 8.
The SH-SY5Y cells’ viability was evaluated after exposure for 24 h to […]. The 3-(4,5-dimethylthiazol-2-yl) − 2,5-diphenyltetrazolium bromide (MTT) colorimetric assay was performed following the methodology described by Joana Silva et al.. The experimental dose–response results were fitted to the Hill’s sigmoidal non-linear regression model. For each cathinone, the LC50 values (cathinone concentration showing 50% lethality) and their confidence interval at the 95% confidence level ([CI]) were determined. The Hill slope, also known as the Hill coefficient, which describes the steepness of a dose–response curve, and the minimum observable adverse effect concentration (LOAEL) were also determined for all cathinones.
Regarding `CC(C(=O)c1ccccc1Cl)N(C)C` (racemic) [2-CDC (12), (R,S)-1-(2-chlorophenyl)-2-(dimethylamino)propan-1-one], the Hillslope stood at 12.4.
For `CCNC(C)C(=O)c1ccccc1Cl` (racemic) [2-CEC (4), (R,S)-1-(2-chlorophenyl)-2-(ethylamino)propan-1-one], the Hillslope was 4.4.
As for `CNC(C)C(=O)c1ccccc1Cl` (racemic) [2-CMC (1), (R,S)-1-(2-chlorophenyl)-2-(methylamino)propan-1-one], the figure is 4.3; as for `CC(C(=O)c1ccccc1Cl)N1CCCC1` (racemic) [2-Cl-PPP (9), (R,S)-1-(2-chlorophenyl)-2-(pyrrolidine-1-yl)propan-1-one], 2.4; as for `CCCCNC(C)C(=O)c1cccc(Cl)c1` (racemic) [3-CBC (7), (R,S)-2-(butylamino)-1-(3-chlorophenyl)propan-1-one], 1.4.
The compound `CC(C(=O)c1cccc(Cl)c1)N(C)C` (racemic) [3-CDC (13), (R,S)-1-(3-chlorophenyl)-2-(dimethylamino)propan-1-one] had a Hillslope of 6.3.
As for `CCNC(C)C(=O)c1cccc(Cl)c1` (racemic) [3-CEC (5), (R,S)-1-(3-chlorophenyl)-2-(ethylamino)propan-1-one], the figure is 1.7.
As for `CC(C)NC(C)C(=O)c1cccc(Cl)c1` (racemic) [3-CIC (17), (R,S)-1-(3-chlorophenyl)-2-(isopropylamino)propan-1-one], the figure is 4.4; as for `CNC(C)C(=O)c1cccc(Cl)c1` (racemic) [3-CMC (2), (R,S)-1-(3-chlorophenyl)-2-(methylamino)propan-1-one], 2.5; as for `CCN(CC)C(C)C(=O)c1cccc(Cl)c1` (racemic) [3-Cl-DEC (15), (R,S)-1-(3-chlorophenyl)-2-(diethylamino)propan-1-one], 4.3.
As for `CC(C(=O)c1cccc(Cl)c1)N1CCCC1` (racemic) [3-Cl-PPP (10), (R,S)-1-(3-chlorophenyl)-2-(pyrrolidine-1-yl)propan-1-one], the figure is 1.7; as for `CC(NC(C)(C)C)C(=O)c1cccc(Cl)c1` (racemic) [3-Cl-TBC (19), (R,S)-2-(tert-butylamino)-1-(3-chlorophenyl)propan-1-one], 3.5; as for `CCCCNC(C)C(=O)c1ccc(Cl)cc1` (racemic) [4-CBC (8), (R,S)-2-(butylamino)-1-(4-chlorophenyl)propan-1-one], 10.5.
`CC(C(=O)c1ccc(Cl)cc1)N(C)C` (racemic) [4-CDC (14), (R,S)-1-(4-chlorophenyl)-2-(dimethylamino)propan-1-one] registered a Hillslope of 5.6.
As for `CCNC(C)C(=O)c1ccc(Cl)cc1` (racemic) [4-CEC (6), (R,S)-1-(4-chlorophenyl)-2-(ethylamino)propan-1-one], the figure is 3.4; as for `CC(C)NC(C)C(=O)c1ccc(Cl)cc1` (racemic) [4-CIC (18), (R,S)-1-(4-chlorophenyl)-2-(isopropylamino)propan-1-one], 4.5.
As for `CNC(C)C(=O)c1ccc(Cl)cc1` (racemic) [4-CMC (3), (R,S)-1-(4-chlorophenyl)-2-(methylamino)propan-1-one], the figure is 1.6; as for `CCN(CC)C(C)C(=O)c1ccc(Cl)cc1` (racemic) [4-Cl-DEC (16), (R,S)-1-(4-chlorophenyl)-2-(diethylamino)propan-1-one], 17.4; as for `CC(C(=O)c1ccc(Cl)cc1)N1CCCC1` (racemic) [4-Cl-PPP (11), (R,S)-1-(4-chlorophenyl)-2-(pyrrolidine-1-yl)propan-1-one], 0.9.
Then `CC(NC(C)(C)C)C(=O)c1ccc(Cl)cc1` (racemic) [4-Cl-TBC (20), (R,S)-2-(tert-butylamino)-1-(4-chlorophenyl)propan-1-one], with 2.4; and `CNC(C)C(=O)c1ccc(C)cc1` (stereo not drawn) [Mephedrone (M), Mephedrone, reference compound], with 2.3.
